Patent publication US20220249563A1 (LEGEND BIOTECH IRELAND, published 2022)
Results are given in words; binding and its absence hold for the method and conditions named. Some entries that bind do so weakly or less than the wild type.

Amino acid sequences for entries named in this document (tags omitted). A change or cut given only in a name is not applied to a line headed by its entry. Chains listed by the source or under a name are the forms on record and can include a tag or linker.
rhesus DLL3 (F6TFV4, form named): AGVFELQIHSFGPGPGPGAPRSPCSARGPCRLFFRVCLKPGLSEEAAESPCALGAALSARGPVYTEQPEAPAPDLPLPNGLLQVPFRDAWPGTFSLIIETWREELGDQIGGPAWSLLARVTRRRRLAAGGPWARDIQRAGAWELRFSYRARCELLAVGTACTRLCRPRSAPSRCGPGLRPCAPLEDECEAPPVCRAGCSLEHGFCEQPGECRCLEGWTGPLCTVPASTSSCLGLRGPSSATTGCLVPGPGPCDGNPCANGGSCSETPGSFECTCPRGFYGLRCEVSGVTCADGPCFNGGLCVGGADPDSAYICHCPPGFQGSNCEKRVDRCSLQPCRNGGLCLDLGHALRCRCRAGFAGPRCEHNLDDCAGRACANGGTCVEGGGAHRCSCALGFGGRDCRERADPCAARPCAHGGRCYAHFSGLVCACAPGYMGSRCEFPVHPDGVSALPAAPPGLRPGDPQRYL

target: rhesus DLL3 (rhesus) (UniProt F6TFV4); assay: ELISA (protein), FACS (cells)

binding	Binder
binds	AS64118 (VHH, camel sdAb; crude E. coli supernatant) VHH: QVQLAESGGGSVQAGGSLRLSCAASGYTYSACRMAWYRQAPGKERELVSFINSAGSTYYADSVKGRFAISRDNAKTTVYLQMNALKAEDTAIYYCNTWDSSCRFQYWGQGTQVTVSS
binds	AS63997 HCAb (Fc fusion, not shown: a dimerising Fc or GST, camel sdAb fused with human IgG1 hinge and Fc (chimeric HCAb), crude HEK293 medium) QVRLVESGGGSVQAGGSLRLSCAGSFSGYGVSTMAWFRQAPGKEREGVAAITVGSGNTYYADSVKGRFTISRDNAKRTVFLQMNSLKPEDTAMYYCAVGYLSGGSWDVPGRYNYWGQGTQVTVSS
binds	AS64475 (VHH, camel sdAb; crude E. coli supernatant) VHH: QVQLQESGGGSVQAGGSLRLSCAASGYTWSRNWMGWFRQAPGKEREGFATITISGGSTWYADSVKGRFTISLDNAGNTVYLQMNSLKPEDTAMYYCAARDTARTYWGQGTQVTVSS
binds	AS64336 (VHH, camel sdAb; crude E. coli supernatant) VHH: QVQLVESGGGSVQAGGSLRLSCTTSGRTYSSCSMGWYRQAPGKERELVSHIFSDGSRYYADSVKGRFTISQDNAKNTVYLQMNSLKPEDTAMYYCNRRTGWAPRCAVPGYWGQGTQVTVSS
binds	AS63987 (VHH, camel sdAb; crude E. coli supernatant) VHH: QVRLVESGGGSVQAGGSLRLSCEATGYRNCMAWFRQAPGKEREGVAVIYTPSGITDYASSVKGRFTISQNNARNTQYLQMNSLKPEDTAMYYCAADRPFVCNIANMRRSSNWGRGTQVTVSS
binds	AS64346 (VHH, camel sdAb; crude E. coli supernatant) VHH: QVHLVESGGGSVQAGGSLRLSCAASGYTYFMGWFRQAPQKEREWVATIGTGDIFNGAAYYVDSVKGRFAISQDNAKNTVYLQMNSLKPEDTAVYVCAAVQSKSSNYVLRDASTYNYWGQGTQVTVSS
binds	AS68170 (VHH, camel sdAb; crude E. coli supernatant) VHH: QVQLVESGGGSVQAGGSLRLSCTASGYTYRSNCMGWFRQAPGKEREGVATIYTGGGRNLYYADSVKGRFTISRDNAKNTLYLQMNSLKPEDSARYYCAAASDVAVGVNSCGGRTAGFDAWGQGTQVTVSS
binds	AS64583 (VHH, camel sdAb; crude E. coli supernatant) VHH: EVQLAESGGGLVQAGGSLRLSCTASGFTIAVYTMGWFRQAPGKEREGISCTSWAGGRTYTADSVKGRFTISRDNAKNTLYLQMNSLKPEDTAMYYCAAKAHPDCSGDWSPSGYEYWGQGTQVTVSS
binds	AS68121 (VHH, camel sdAb; crude E. coli supernatant) VHH: EVQLAESGGGSVQAGGSLRLSCDASGYTYSRNCMGWFRQAPGKEREGVAAFYTDYIRFGRTYYADSVKGRFTIFQDNAKNTVYLQMNSLKPEDTAMYYCAADPGSRTDDSCGTSYNKGNFGYWGQGTQVTVSS
binds	AS64276 (VHH, camel sdAb; crude E. coli supernatant) VHH: QVHLMESGGGSVQAGGSLSLSCVVSGYTGSSRCMAWFRQAPGKEREAVAQIFTGRGTTGYADSVKGRFTISQDNAKNTVYLRMNSLRPEDTAIYYCAASLGPGRGACGYNYWGQGTQVTVSS
binds	AS63984 (VHH, camel sdAb; crude E. coli supernatant) VHH: QVKLVESGGGSVQAGGSLRLSCAASGYTYSSNFMGWFRQAPGKEREGVATIVSGGGTTYYADSVRGRFTISQDNAKNTVYLQMNSLKPEDTAMYYCAAGGPVTNAPRWYPLRPPGYNYWGQGTQVTVSS
binds	AS64207 (VHH, camel sdAb; crude E. coli supernatant) VHH: EVQLVESGGGSVQAGGSLRLSCAASGYTYSSNFMGWFRQAPGKEREGVATIVSGGGTTYYADSVRGRFTISQDNAKNTVYLQMNSLKPEDTAMYYCAAGGPPTNGAKWYPLRPPGYNYWGQGTQVTVSS
binds	AS64605 (VHH, camel sdAb; crude E. coli supernatant) VHH: QVKLVESGGGSVQAGGSLRLSCAVSRYPYSSICMGWFRQAPGKESEGVARIYTGTGSTWYTDSVKGRFTIARDNAQNTVYLQMNSLKPEDTAMYYCAARSNSYSYSSCDYGPLTRGGYNFWGQGTQVTVSS
binds	AS64163 (VHH, camel sdAb; crude E. coli supernatant) VHH: QVRLVESGGGSVQAGGSLRLSCAVSGYRYRWNCMAWFRQAPGKEREGVAAISTGSGSTYYAGSVKGRFTISQDNAKNMYLQMNSLKPEDTAMYYCAADPSVCPGGMWYSKEYRYWGQGTQVTVSS
binds	AS64420 (VHH, camel sdAb; crude E. coli supernatant) VHH: EVQLVESGGGSVQAEGSLRLSCAASGDTSRSVWMGWARQVPGKEREVVATISTAGGSTWYTDSVKGRFTISQDNAKNTVYLQMNSLKPEDTAIYYCAARSRYATYWGQGTQVTVSS
binds	AS64047 HCAb (Fc fusion, not shown: a dimerising Fc or GST) QVHLVESGGGSVQAGGSLRLSCAASQYVYRWDLMGWFRQAPGKEREAVAAVYTGDGITYYADSVKGRFSISQDNAKNTVYLQMNSLKPEDTGMYFCAAGFVSGGRWNQSYRYKYWGQGTQVTVSS
binds	AS64116 (VHH, camel sdAb; crude E. coli supernatant) VHH: QVKLVESGGGSVQAGGSLRLSCAASGYIYSCVGWFRQAPGKEREGVAGISTGGGGTVYADSVKGQFTISRDNAKNTVYLQMDSLKPEDTAMYYCAADRWNSFANCGAWGRYTYWGQGTQVTVSS

binding	Binder
binds	AS64120 (VHH, camel sdAb; crude E. coli supernatant) VHH: QVRLVESGGGSVQAGGSLRLSCETSRYIYGNNCMAWFRQAPGKEREGVASIYPAGGRPYYADSVKGRFTISQDNAKNTVYLQMDSLKPEDTAMYYCAARSFSIADCATQSGITRSNFAYWGQGTQVTVSS
binds	AS63951 (VHH, camel sdAb; crude E. coli supernatant) VHH: QVHLMESGGGSVQAGGSLRLACETSRDIYGNNCMAWFRQAPGKEREGVASIYPAGGRPYYADSVKGRFTISQDNAKNTVYLQMDSLKPEDTAMYYCAARSFSIAVCATRSGITRSNFAYWGQGTQVTVSS
binds	AS64093 (VHH, camel sdAb; crude E. coli supernatant) VHH: QVHLVESGGGSVQAGGSLRLSCATSRYIYGNNCMAWFRQAPGKEREGVASIYPAGGRTYYADSVKGRFTISQDNAKNTVYLQIDSLKPEDTAMYYCAARSFSIGVCATQSGITWSNFAYWGQGTQVTVSS
binds	AS64513 (VHH, camel sdAb; crude E. coli supernatant) VHH: EVQLVESGGGSVQAGGSLRLSCVASDYPYIDNCMGWFRQGPGKEREGVAAACTGGGSTYYADSVKGRFTISRDNAKNTVYLQMNSLKPEDTDVYYCATGYYSGSGPGYLLPWRYNYWGQGTQVTVSS
binds	AS63948 (VHH, camel sdAb; crude E. coli supernatant) VHH: QVQLVESGGGSVQAGGSLRLSCTASGYTYRYLYMGWFRQTPGKEREGVACIYTGSGSTGYADSVKGRFTISQDNAENTVYLQMNSLKPEDTAMYYCAAASPRWGGTCRRWSEYNYWGQGTQVTVSS
binds	AS64473 (VHH, camel sdAb; crude E. coli supernatant) VHH: QVRLVESGGGSVQAGGSLRLSCTASGYTYRYLYMAWFRQTPGKEREGVACIYTGSGTTGYADSVKGRFTISQDNAKNTVYLQMNSLNAEDTAMYYCAASSPQWGGTCRRWSEYNYWGQGTQVTVSS
binds	AS64154 (VHH, camel sdAb; crude E. coli supernatant) VHH: QVQLKESGGGSVQAGGSLRLSCTASGYTYRYLYMGWFRQTPGKEREGVACIYTGSGSTGYADSVKGRFTISQDNAKNTVYLQMNNLKPEDTAMYYCAASSPRWGGTCRRWSQYNYWGQGTQVTVSS
binds	AS64182 (VHH, camel sdAb; crude E. coli supernatant) VHH: QVHLMESGGGSVQAGGSLRLSCTASGQTSRYLYMGWFRQTPGKEREGVACIYTGSGSTGYADSVKGRFTISQDNAKNTVYLQTNSLKPEDTAMYYCAASSPHWGGTCRRWSEYKYWGQGTQVTVSS
binds	AS64124 (VHH, camel sdAb; crude E. coli supernatant) VHH: QVKLVESGGGSVQTGGSLRLSCAVSTYTPSNNYMGWFRQAPGKEREGVAAIATIGGTTRYADSVKGRFTISQDGAKNTIYLQMNGLKPEDTAMYYCAAGRPYSLPLPLPLESGAYRYWGQGTQVTVSS
binds	AS64183 (VHH, camel sdAb; crude E. coli supernatant) VHH: QVHLVESGGGSVQAGGSLRLSCAASGHTYSANCMAWFRRAPGKEREWVASVYTDDDSTMYTDSVKGRFTIFQDNAKNTVYLQMNSLKPEDTGMYICAADLSGGPAGCGYTHWGQGTQVTVSS
binds	AS64135 (VHH, camel sdAb; crude E. coli supernatant) VHH: QVKLVESGGGSVQAGGSLRLSCVASTSTYCRYYMRWYRQAPGKEREFVSAMQPDGTTSYSDSVKGRFTMSQDRANNMLYLQMNSLRPEDTAMYYCKRDPMGGSRTPCTSAWGQGTQVTVSS
binds	AS68320 (VHH, camel sdAb; crude E. coli supernatant) VHH: QVHLVESGGDSVQAGGSLRLSCAASGYTYNTNYMGWFRQAPGKEREGVAAIYRHSGNTAYADSVKGRFTISQDYAKNTVYLQMNSLKPEDTAMYYCAAGRAGPWALMRPTEFGYWGQGTQVTVSS
binds	AS64562 (VHH, camel sdAb; crude E. coli supernatant) VHH: EVQLVESGGGSVQAGGSLRLSCAASGYTARRDFMAWFRQVPGKEREGVAVIHTGGDTTYYADSVKGRFTISRDNAQNIMNLQMNSLKPEDTAMYYCAAGFRPRGGGYTGDVLAQAAAYNYWGQGTQVTVSS
binds	AS64594 (VHH, camel sdAb; crude E. coli supernatant) VHH: QVHLVESGGGSVQAGGSLRLSCAASGYTYNSNYMGWFRQAPGKEREGVALIYTGGGSTYYADSVKGRFTISRDNAKNTVYLQMNSLKPEDTAMYYCSVRTQTRNYWGQGTQVTVSS
binds	AS63964 (VHH, camel sdAb; crude E. coli supernatant) VHH: QVRLVESGGGSVQAGGSLRLSCSASGYTYSYNNMGWFRQAPGNEREGVAAISGGRFTAYADSVKGRFTISRDNAENTLYLQMNNLKPEDTGMYYCAAEVVDPTWGSRDQRRYKYWGQGTQVTVSS
binds	AS68270 (VHH, camel sdAb; crude E. coli supernatant) VHH: QVQLAESGGGSVQAGGSLRLSCVASGYPSSTYYMLSMAWFRQAPGKEREGVAAITSGTGSTSYADSVKDRFTISKDYANNTLYLHINNLKPEDTAMYYCAAASGWIVPSRSLTANLYRYWGQGTQVTVSS
